Laboratory results: PubChem BioAssay AID504786 (Drosophila RNAi Screening Center, 2011)

Screen: 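Knock-downs reducing HIF reporter induction by the iron chelator DFO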 (primary screen)
Cell system: Drosophila S2 cells with a stable HIF luciferase reporter
Reagents: long dsRNA against Drosophila genes, about 0.2 µg dsRNA per well of a 384-well plate
Timing: three days of knock-down, then 20 h of DFO before reading
Treatment: desferrioxamine (DFO) at 100 µM, an iron chelator that mimics hypoxia, for 20 h
Measurement: 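Firefly luciferase driven by the mouse ldh-a hypoxia-response element, measured after 20 h of 100 µM DFO; z-scores per plate, higher means more signal lost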
Scale: z-score: higher = stronger loss of HIF reporter signal
The screen tested about 21,000 reagents; this is a random part of those that have a named target and a result. 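Primary screen; positive scores mean lost reporter signal, so the sign may be inverted from the usual convention.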 Reagent sequences are not shown.

myd (mayday) [DRSC14762]: z-score, replicate 1 = 2.5; z-score, replicate 2 = 3.4
myd (mayday) [DRSC15512]: z-score, replicate 1 = -0.8; z-score, replicate 2 = -0.2
CG13428 [DRSC06390]: z-score, replicate 1 = -0.1; z-score, replicate 2 = 1
CG15576 [DRSC18064]: z-score, replicate 1 = -0.3; z-score, replicate 2 = -0.3
CG30269 [DRSC04158]: z-score, replicate 1 = -0.2; z-score, replicate 2 = 0
Send2 (Spermathecal endopeptidase 2) [DRSC01906]: z-score, replicate 1 = -0.4; z-score, replicate 2 = -0.4
CG11883 [DRSC06094]: z-score, replicate 1 = -0.3; z-score, replicate 2 = -0.3
Rel (Relish) [DRSC16819]: z-score, replicate 1 = -0.3; z-score, replicate 2 = -0.5
Fntb (Farnesyl transferase beta subunit) [DRSC15244]: z-score, replicate 1 = -0.3; z-score, replicate 2 = -0.6
Hat1 (Histone acetyltransferase 1) [DRSC12298]: z-score, replicate 1 = -0.4; z-score, replicate 2 = -0.3
drk (downstream of receptor kinase) [DRSC07606]: z-score, replicate 1 = 0.1; z-score, replicate 2 = 0.9
CG9360 [DRSC20180]: z-score, replicate 1 = -0.1; z-score, replicate 2 = 0.1
CG13272 [DRSC02249]: z-score, replicate 1 = -0.3; z-score, replicate 2 = -0.5
PpD6 (Protein phosphatase D6) [DRSC00774]: z-score, replicate 1 = 0.1; z-score, replicate 2 = 0.1
Mst84Dd (Male-specific RNA 84Dd) [DRSC12600]: z-score, replicate 1 = -0.2; z-score, replicate 2 = -0.5
CG43102 [DRSC14797]: z-score, replicate 1 = -1.2; z-score, replicate 2 = 0.2
CG43102 [DRSC16239]: z-score, replicate 1 = 0.6; z-score, replicate 2 = 1
